Assay results taken from article PMC10728118.
For part of these data: Weaker means in comparison with the reference protein, sequence or condition of that experiment. For part of these data: For at least one entry, the source does not settle the construct or the ends of the probe.

Sequences of proteins named here, by UniProt entry; tags and fusion partners are left off.
UniProt P25490, whole entry: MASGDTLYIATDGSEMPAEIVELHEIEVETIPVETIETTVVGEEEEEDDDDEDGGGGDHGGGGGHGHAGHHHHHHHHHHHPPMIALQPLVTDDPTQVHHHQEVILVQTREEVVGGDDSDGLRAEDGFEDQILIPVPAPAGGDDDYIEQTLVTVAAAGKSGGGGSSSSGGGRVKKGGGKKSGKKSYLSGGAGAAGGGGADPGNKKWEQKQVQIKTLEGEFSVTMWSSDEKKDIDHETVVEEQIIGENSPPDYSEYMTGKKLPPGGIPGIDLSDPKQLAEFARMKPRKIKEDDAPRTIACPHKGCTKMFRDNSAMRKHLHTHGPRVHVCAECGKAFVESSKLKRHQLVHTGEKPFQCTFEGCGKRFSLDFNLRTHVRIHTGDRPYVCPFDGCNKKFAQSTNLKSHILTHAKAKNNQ

Legend:
[1] = biological target: His-YY1 full-length (Abcam ab187479) (UniProt P25490); assay: EMSA; details: EMSA: 10 mM HEPES-KOH, 12 mM Tris-HCl, 50 mM NaCl, 50 mM KCl, 5 mM MgCl2, 100 uM ZnCl2, 0.01% NP-40, 5% glycerol, 2.5 mM DTT, pH 7.4, 25 C, 2.5 nM probe, commercial protein, residues 1-414, protein details: His, label: Cy5
[2] = biological target: His-YY1 full-length (UniProt P25490); assay: EMSA; details: EMSA: 10 mM HEPES-KOH, 12 mM Tris-HCl, 50 mM NaCl, 50 mM KCl, 5 mM MgCl2, 100 uM ZnCl2, 0.01% NP-40, 5% glycerol, 2.5 mM DTT, pH 7.4, 25 C, 2.5 nM probe; recombinant protein; residues 1-414; protein details: His; label: Cy5

“AGTCCTAAATGGGGGAGGAG (double strand) [FuzzyYY1-b DNA]”: binds ([1]; disrupted by (GGGGCC)8 RNA, more susceptible than FuzzyYY1-a).

“GGGGCCGGGGCCGGGGCCGGGGCCGGGGCCGGGGCCGGGGCCGGGGCC (double strand) [(GGGGCC)8 DNA]”: binds more weakly [2].

“TGGGCAACATGGCGACACCC (double strand) [FuzzyYY1-a DNA]”: binds ([1]; disrupted by increasing (GGGGCC)8 RNA).
